Reference: paper doi:10.1101/068262 (bioRxiv, 2016)
Residue numbers refer to the chain shown, from its start. These are yes or no findings as the source states them, for the method shown. Binding seen in cells or lysates may run through a third protein. Where a sequence is shown, tags or fusion partners need not be part of it.

Columns and labels:
Assay in all cases: co-IP
[1] = target: T1, FLAG-AFF4 Δ970-1163 E322H (UniProt Q9UHB7)
T1 sequence: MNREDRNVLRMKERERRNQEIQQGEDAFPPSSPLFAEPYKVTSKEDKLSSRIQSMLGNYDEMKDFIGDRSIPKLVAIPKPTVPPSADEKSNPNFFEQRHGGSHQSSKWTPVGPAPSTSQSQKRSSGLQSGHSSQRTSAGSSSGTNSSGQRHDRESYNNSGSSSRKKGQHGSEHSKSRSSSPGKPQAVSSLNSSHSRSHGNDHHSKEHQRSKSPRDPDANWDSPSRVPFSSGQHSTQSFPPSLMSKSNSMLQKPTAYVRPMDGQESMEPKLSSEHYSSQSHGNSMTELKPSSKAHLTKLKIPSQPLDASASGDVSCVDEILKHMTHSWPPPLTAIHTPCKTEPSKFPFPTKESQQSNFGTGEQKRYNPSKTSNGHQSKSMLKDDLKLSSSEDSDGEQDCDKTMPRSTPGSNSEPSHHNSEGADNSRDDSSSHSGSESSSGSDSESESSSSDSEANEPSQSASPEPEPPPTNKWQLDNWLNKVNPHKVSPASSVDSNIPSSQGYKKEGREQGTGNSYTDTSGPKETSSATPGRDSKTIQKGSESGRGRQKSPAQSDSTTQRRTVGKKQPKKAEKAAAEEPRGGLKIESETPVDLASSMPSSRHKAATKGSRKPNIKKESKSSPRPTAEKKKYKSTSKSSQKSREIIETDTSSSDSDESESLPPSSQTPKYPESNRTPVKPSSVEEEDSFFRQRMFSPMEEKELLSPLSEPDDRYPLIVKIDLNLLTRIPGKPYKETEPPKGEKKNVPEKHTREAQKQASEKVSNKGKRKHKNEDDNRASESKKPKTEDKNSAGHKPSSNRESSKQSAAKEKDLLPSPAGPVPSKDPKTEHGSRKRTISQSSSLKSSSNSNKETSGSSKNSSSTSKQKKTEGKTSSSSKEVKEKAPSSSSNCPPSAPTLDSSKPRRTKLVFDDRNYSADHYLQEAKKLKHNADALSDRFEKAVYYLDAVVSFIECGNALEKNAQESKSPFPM

[2] = target: T2, FLAG-AFF4 Δ970-1163 I334D (UniProt Q9UHB7)
T2 sequence: T1 sequence with H322E, I334D

[3] = target: T3, FLAG-AFF4 Δ970-1163 L320D (UniProt Q9UHB7)
T3 sequence: T1 sequence with L320D, H322E

Measured: binding

B1: ELL1 in nuclear extracts (protein, UniProt P55199 1-621)
chain: MAALKEDRSYGLSCGRVSDGSKVSVFHVKLTDSALRAFESYRARQDSVSLRPSIRFQGSQGHISIPQPDCPAEARTFSFYLSNIGRDNPQGSFDCIQQYVSSHGEVHLDCLGSIQDKITVCATDDSYQKARQSMAQAEEETRSRSAIVIKAGGRYLGKKVQFRKPAPGATDAVPSRKRATPINLASAIRKSGASAVSGGSGVSQRPFRDRVLHLLALRPYRKAELLLRLQKDGLTQADKDALDGLLQQVANMSAKDGTCTLQDCMYKDVQKDWPGYSEGDQQLLKRVLVRKLCQPQSTGSLLGDPAASSPPGERGRSASPPQKRLQPPDFIDPLANKKPRISHFTQRAQPAVNGKLGVPNGREALLPTPGPPASTDTLSSSTHLPPRLEPPRAHDPLADVSNDLGHSGRDCEHGEAAAPAPTVRLGLPLLTDCAQPSRPHGSPSRSKPKKKSKKHKDKERAAEDKPRAQLPDCAPATHATPGAPADTPGLNGTCSVSSVPTSTSETPDYLLKYAAISSSEQRQSYKNDFNAEYSEYRDLHARIERITRRFTQLDAQLRQLSQGSEEYETTRGQILQEYRKIKKTNTNYSQEKHRCEYLHSKLAHIKRLIAEYDQRQLQAWP
no binding: all assays above
